# This is one part of the list. These are further read-outs of the screen, such as a control signal, another cell line or another target. No call is given for them. Most of these compounds were active or inconclusive in the main read-out, so they are no random draw. The note in brackets gives the kind of curve behind each potency; many fits are weak.
# Assay: IkB Signaling
# Conditions: ABC-DLBCL IkBa-CBG/CBR dual luciferase ratio (green luciferase fused to IkBa over red control in OCI-Ly3 lymphoma cells), 4 h
# Procedure, shortened: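 In this assay, an IκBα–CBG68 fusion accumulates when IKK-driven degradation is blocked; native CBR normalizes for cell number. OCI-Ly3 cells were treated 4 h with compound and doxycycline, then green and red light read after Chroma-Glo addition.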
# [1] = measured here: control luc red channel unless noted
smiles,measurement,setting,value
Cc1c(C(=O)N(Cc2cccc(F)c2)C2CCS(=O)(=O)C2)oc2cc(Br)ccc12 (centres undefined),AC50,[1],"25.1 µM [falling, partial curve]"
COc1ccc(NC(=O)CN2C(=O)C3(SCC(=O)N3c3ccccc3)c3ccccc32)cc1Cl (centres undefined),AC50,[1],"0.0316 µM [falling, full curve, poor fit]"
COc1ccc(CNC(=O)c2cccc(N3CCCS3(=O)=O)c2)cc1OC,AC50,[1],"15.8 µM [falling, partial curve]"
CCc1ccc(N2C(=O)CSC23C(=O)N(Cc2cccc(OC)c2)c2ccccc23)cc1 (centres undefined),AC50,[1],"3.16 µM [falling, partial curve]"
O=C(NCc1ccc(F)cc1)c1ccc(Cn2c(SCc3ccc(F)cc3)nc3cccnc32)cc1,AC50,[1],"3.16 µM [falling, full curve]"
CCN(CCCNC(=O)c1cc2cc3ccc(OC)cc3nc2s1)c1cccc(C)c1,AC50,[1],"0.126 µM [falling, full curve, poor fit]"
O=C(Nc1ccc2oc(-c3ccccc3)nc2c1)c1cccnc1,AC50,[1],"39.8 µM [falling, single point]"
CCC(C)NC(=O)c1ccc2c(c1)N(Cc1ccccc1F)C(=O)c1ccccc1S2=O (centres undefined),AC50,[1],"10 µM [falling, partial curve]"
O=C(CCC(=O)N1CCSc2ccccc21)NCc1ccccc1Cl,AC50,[1],"31.6 µM [falling, single point]"
Cn1c(=O)oc2cc(S(=O)(=O)NCCC(=O)NCc3ccc(F)cc3)ccc21,AC50,[1],"39.8 µM [falling, single point]"
O=C(Nc1ccc2c(c1)nc1n2CCSC1)c1ccccc1,AC50,[1],"3.98 µM [falling, full curve]"
CCN(C(=O)Cn1c(=O)nc(-c2ccccc2)c2cc(Cl)ccc21)c1cccc(C)c1,AC50,[1],"39.8 µM [falling, single point]"
CCc1cccc(NC(=O)C2CCC(CNS(=O)(=O)c3ccc4c(c3)CCCC(=O)N4)CC2)c1 (centres undefined),AC50,[1],"20 µM [falling, partial curve]"
CCCCCOC(=O)NCC(O)c1ccccc1 (centres undefined),AC50,[1],"10 µM [falling, partial curve]"
CCc1cccc(NC(=O)C(NS(=O)(=O)c2ccc3nc(C)sc3c2)C(C)C)c1 (centres undefined),AC50,[1],"25.1 µM [falling, single point]"
O=C(C1=C(O)C(=O)N(CCN2CCOCC2)C1c1ccccn1)c1cccs1 (centres undefined),AC50,[1],"25.1 µM [falling, single point]"
CCOC(=O)c1ccn(-c2nc(-c3ccco3)cc(C(F)(F)F)n2)n1,AC50,[1],"25.1 µM [falling, partial curve]"
COc1ccccc1N1CCN(c2ccc(-c3ccccc3)nn2)CC1,AC50,[1],"631 nM [rising, full curve] [measured here: IkB-luc green channel]"
O=C(Nc1nc2ccccc2s1)c1ccc(S(=O)(=O)N2CCCC2)cc1,AC50,[1],"0.1 µM [falling, partial curve, poor fit]"
O=S(=O)(c1ccc2nc(NCc3ccccc3Cl)ccc2c1)N1CCCCC1,AC50,[1],"2.51 µM [rising, full curve]"
CC(O)CN1C(=O)C(CC(=O)Nc2ccc(Cl)cc2)SC1=Nc1ccccc1 (centres undefined),AC50,[1],"15.8 µM [falling, partial curve]"
CC(CNC(=O)c1ccc(CSc2nc3ccncc3n2Cc2ccccc2)cc1)c1ccccc1 (centres undefined),AC50,[1],"12.6 µM [falling, partial curve]"
COc1ccc(CNC(=O)CSc2nc(-c3ccc(OC)c(OC)c3)cc(C(F)(F)F)n2)cc1,AC50,[1],"0.794 µM [rising, full curve, poor fit]"
COc1cc(Cl)c(NS(=O)(=O)c2ccc(-c3cnc(C4CC4)o3)cc2)c(OC)c1,AC50,[1],"2 µM [rising, partial curve]"
O=C(CN1c2cccc3cccc(c23)S1(=O)=O)NCc1ccc2c(c1)OCO2,AC50,[1],"12.6 µM [falling, partial curve]"
CC(C)CCNC(=O)C(c1ccco1)N(Cc1cccs1)C(=O)Cn1nnc2ccccc21 (centres undefined),AC50,[1],"3.16 µM [falling, partial curve]"
CCCc1ccc(-c2ccc(C(=O)Oc3ccc(OCC)cc3)cc2)nc1,AC50,[1],"1.26 µM [falling, full curve]"
Cc1ccc(CCNC(=O)CS(=O)Cc2nc(-c3ccccc3C)oc2C)cc1 (centres undefined),AC50,[1],"25.1 µM [falling, partial curve]"
CCN(Cc1ccccc1)C(=O)Cn1c(=O)n(-c2ccc(Cl)cc2)c(=O)c2c(C)c(C(=O)N(C)C)sc21,AC50,[1],"1.26 µM [rising, full curve]"
CCc1ccc(OCc2nc(-c3ccc(OC)cc3)no2)c(Br)c1,AC50,[1],"5.01 µM [falling, partial curve]"
Cc1nn(-c2ccc(N3CCCC3)nn2)c(C)c1CCC(=O)Nc1ccc(F)cc1F,AC50,[1],"31.6 µM [falling, single point]"
O=C(NCc1ccc(F)cc1)c1ccc(Nc2nc3ccccc3n3nnnc23)cc1,AC50,[1],"2.51 µM [falling, partial curve]"
CCCC12CN3CC(CCC)(CN(C1)C3c1ccccc1)C2=O (centres undefined),AC50,[1],"31.6 µM [falling, partial curve]"
CCOC(=O)c1ccc(NC(=O)NCCOCCn2c(=O)oc3ccccc32)cc1,AC50,[1],"12.6 µM [falling, partial curve]"
CC/C(=C(\c1ccccc1)c1ccc(OCCN(C)C)cc1)c1ccc(O)cc1,AC50,[1],"15.8 µM [falling, partial curve]"
CCS(=O)(=O)c1nc(S(=O)(=O)c2ccc(C)cc2)c(NCCCOC)s1,AC50,[1],"25.1 µM [falling, partial curve, poor fit]"
Cn1nnc(NC(=O)COc2ccc(C3CCCCC3)cc2)n1,AC50,[1],"12.6 µM [falling, partial curve]"
O=C(Nc1ccccc1Br)C(Cc1ccccc1)NS(=O)(=O)c1cccc2nsnc12 (centres undefined),AC50,[1],"10 µM [falling, partial curve]"
COc1ccccc1NC(=O)C1CCN(C(=O)c2sc3nc[nH]c(=O)c3c2C)CC1,AC50,[1],"0.631 µM [rising, full curve]"
CC(=O)c1ccc(NC(=O)c2ccc(-c3ccc(Cl)cc3)o2)cc1,AC50,[1],"1 µM [rising, full curve, poor fit]"
COc1cccc(CSc2nc3n(n2)C(CC(C)C)C(C(=O)Nc2ccccc2OC)=C(C)N3)c1 (centres undefined),AC50,[1],"0.2 µM [falling, full curve]"
CCOc1ccc(S(=O)(=O)N(CC(=O)NCc2ccccc2OC)c2ccccc2)cc1,AC50,[1],"15.8 µM [falling, partial curve]"
CC(OC(=O)c1cc(=O)[nH]c2ccccc12)c1ccccc1 (centres undefined),AC50,[1],"20 µM [falling, single point]"
O=C(O)c1cccc(NC(=O)c2ccccc2)c1,AC50,[1],"7.94 µM [falling, partial curve]"
COc1ccc(C(=O)N2CCC(C(=O)Nc3ccc(Cl)cc3)CC2)cc1,AC50,[1],"31.6 µM [falling, single point]"
CCOC(=O)C1CCN(C(=O)COc2cc(C)c(Br)cc2C)CC1,AC50,[1],"2 µM [falling, full curve]"
CC(C(=O)NCC1CCCO1)N(C(=O)c1snc(C(N)=O)c1N)c1ccccc1 (centres undefined),AC50,[1],"63.1 nM [rising, full curve] [measured here: IkB-luc green channel]"
Cc1ccccc1Nc1c(-c2ccc(Br)o2)nc2ccc(Cl)cn12,AC50,[1],"7.94 µM [falling, partial curve]"
CCc1ccc(NC(=O)Cc2c(C(=O)O)c(C)cn2C)cc1,AC50,[1],"15.8 µM [rising, partial curve]"
O=C(CC(SCCO)c1ccc(F)cc1)c1ccco1 (centres undefined),AC50,measured here: IkB-luc green channel,"31.6 µM [rising, partial curve]"
same,AC50,measured here: control luc red channel,"39.8 µM [falling, single point]"
CCN(Cc1nc(-c2ccc(OC)cc2)oc1C)S(=O)(=O)c1ccc(C)cc1,AC50,[1],"31.6 µM [falling, partial curve]"
Cc1c(CCNC(=O)c2ccco2)sc2nc(-c3ccc(F)cc3)nn12,AC50,[1],"3.98 µM [rising, single point]"
Cc1ccc(NC(=O)CN2CCSc3ccc(S(=O)(=O)N4CCCC4)cc32)cc1,AC50,[1],"12.6 µM [falling, partial curve]"
CCc1ccc(Oc2c(C(F)(F)F)oc3c(CN4CCC(C)CC4)c(O)ccc3c2=O)cc1,AC50,[1],"0.251 µM [falling, single point]"
O=C(NC1CC1)c1cc2c(s1)-c1ccccc1OC2,AC50,[1],"12.6 µM [falling, partial curve]"
O=C(Nc1ccc2nc(SCC(=O)N3CCCC3)sc2c1)c1cccc(Br)c1,AC50,[1],"31.6 µM [falling, partial curve]"
Cc1cc(C)cc(N2C(=O)CSC23C(=O)N(CC(=O)Nc2ccc(F)cc2F)c2ccccc23)c1 (centres undefined),AC50,[1],"12.6 µM [falling, partial curve]"
CCOCCCN1C(=O)c2[nH]nc(-c3ccccc3O)c2C1c1ccc(CC)cc1 (centres undefined),AC50,[1],"15.8 µM [falling, partial curve]"
Cc1cc(C)c(C#N)c(SC2CCCCC2=O)n1 (centres undefined),AC50,[1],"5.01 µM [falling, full curve, poor fit]"
CCc1cccc(NC(=O)Cn2c(=O)n(CC(=O)NCCc3ccccc3)c(=O)c3ccccc32)c1,AC50,[1],"10 µM [falling, partial curve]"
CC(C)CCn1c(=O)c2sccc2n2c(CCCC(=O)NCCc3ccccc3)nnc12,AC50,[1],"39.8 µM [falling, single point]"
O=C1CC(c2ccccc2)c2c(n3ncnc3[nH]c2=O)N1 (centres undefined),AC50,[1],"5.01 µM [rising, full curve]"
COc1cccc(-c2cc(C(=O)Nc3cccc(O)c3)no2)c1,AC50,[1],"2 µM [falling, full curve]"

# Four records drawn at random from those above, as already listed:
smiles,measurement,setting,value
O=C(Nc1nc2ccccc2s1)c1ccc(S(=O)(=O)N2CCCC2)cc1,AC50,[1],"0.1 µM [falling, partial curve, poor fit]"
CC(CNC(=O)c1ccc(CSc2nc3ccncc3n2Cc2ccccc2)cc1)c1ccccc1 (centres undefined),AC50,[1],"12.6 µM [falling, partial curve]"
CC(=O)c1ccc(NC(=O)c2ccc(-c3ccc(Cl)cc3)o2)cc1,AC50,[1],"1 µM [rising, full curve, poor fit]"
CCOC(=O)C1CCN(C(=O)COc2cc(C)c(Br)cc2C)CC1,AC50,[1],"2 µM [falling, full curve]"

# Source: PubChem BioAssay AID445 (National Center for Advancing Translational Sciences (NCATS), 2006)
